From the supplement of paper PMC12823440, “Inhibitors supercharge kinase turnover through native proteolytic circuits” (Nature, 2025)
Structures can show the parent of a compound that is named as a salt. The list shows a part of the results. Hit calls seldom repeat between salt and free forms of one compound.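 Kinases, fused to nanoluciferase, were expressed in K562 cells; luminescence was measured every 4 h from 2 to 18 h as percent of control (DMSO = 100%, positive control = 0%). A time point is decreased if signal falls significantly (2 sigma). Hits were called by the authors by a rule that is not shown; the count of time points alone does not decide it.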

The chains behind the UniProt entries cited, without tags or fusion partners.
UniProt P09619, whole entry: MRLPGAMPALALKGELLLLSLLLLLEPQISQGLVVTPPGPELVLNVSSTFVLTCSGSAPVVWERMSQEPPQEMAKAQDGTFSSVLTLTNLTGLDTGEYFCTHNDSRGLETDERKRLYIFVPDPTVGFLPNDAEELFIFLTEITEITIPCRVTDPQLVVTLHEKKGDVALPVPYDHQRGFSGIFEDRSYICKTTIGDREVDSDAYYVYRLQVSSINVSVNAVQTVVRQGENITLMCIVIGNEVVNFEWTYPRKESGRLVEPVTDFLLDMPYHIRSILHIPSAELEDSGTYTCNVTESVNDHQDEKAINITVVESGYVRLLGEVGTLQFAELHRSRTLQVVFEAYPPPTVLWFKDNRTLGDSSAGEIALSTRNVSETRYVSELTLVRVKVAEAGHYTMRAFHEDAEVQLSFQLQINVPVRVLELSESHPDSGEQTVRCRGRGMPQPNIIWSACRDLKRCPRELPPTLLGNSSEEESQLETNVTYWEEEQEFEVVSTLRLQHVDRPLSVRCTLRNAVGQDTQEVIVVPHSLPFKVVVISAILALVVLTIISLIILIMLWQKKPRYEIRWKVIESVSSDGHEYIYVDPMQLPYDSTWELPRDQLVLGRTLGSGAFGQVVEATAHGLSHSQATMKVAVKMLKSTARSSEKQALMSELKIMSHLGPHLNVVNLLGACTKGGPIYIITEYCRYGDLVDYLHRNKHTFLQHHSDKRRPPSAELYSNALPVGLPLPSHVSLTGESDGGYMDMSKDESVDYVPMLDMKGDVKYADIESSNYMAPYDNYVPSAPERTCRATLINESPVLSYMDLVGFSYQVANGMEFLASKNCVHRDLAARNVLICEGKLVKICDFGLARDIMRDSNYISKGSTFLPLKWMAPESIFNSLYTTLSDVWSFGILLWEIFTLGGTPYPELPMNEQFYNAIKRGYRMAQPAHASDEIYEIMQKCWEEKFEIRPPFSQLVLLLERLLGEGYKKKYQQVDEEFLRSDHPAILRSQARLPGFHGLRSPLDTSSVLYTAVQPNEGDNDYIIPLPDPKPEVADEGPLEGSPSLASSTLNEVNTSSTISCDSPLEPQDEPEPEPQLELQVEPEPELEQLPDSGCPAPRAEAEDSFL

Biological target: PDGFRB (UniProt P09619)
Assay: kinase-Nluc reporter destabilization hit call (1 = scored as downregulated) (binary); higher = compound decreases kinase abundance
Conditions: K562; 2-18 h

kinase-Nluc reporter destabilization hit call, inactive:
CN(C)c1nc2c(Br)c(Br)c(Br)c(Br)c2n1CC(=O)O (10 µM) 0
COc1cc(N2CCC(N(C)C)CC2)ccc1Nc1ncc(Cl)c(Nc2ccccc2P(C)(C)=O)n1 (2.5 µM) 0
CC(C)C[C@H](NC(=O)[C@H](CCCCN)NC(=O)[C@H](CO)NC(=O)[C@@H](N)CC(C)C)C(N)=O [LSKL, Inhibitor of Thrombospondin (TSP-1) (TFA)] (10 µM) 0
O=C(Nc1ccc(Cl)c(Cl)c1)Nc1ccc2nnsc2c1 (10 µM) 0
CC(C)Oc1ccc(-c2cnc3c(-c4ccnc5ccccc45)cnn3c2)cc1 (10 µM) 0
O=C(CCCCCn1cc(Nc2ncc(Cl)c(Nc3ccc(Cl)cc3)n2)cn1)NO (2.5 µM) 0
CC(=O)NCCc1c[nH]c2ccc(O)cc12 [N-Acetyl-5-hydroxytryptamine] (10 µM) 0
O=C(c1ccc(Nc2nccc(-c3cc4ccccc4s3)n2)cc1)N1CCC(N2CCCC2)CC1 (2.5 µM) 0
C=CC(=O)N1CCC[C@@H](n2nc(C(=O)Nc3ccc(CC(=O)N(C)C)c(C)c3C)c3c(N)ncnc32)C1 (10 µM) 0
CC(CCc1ccccn1)(CCc1ccccn1)C(=O)c1ccccc1 (10 µM) 0
CC[C@@H]1[C@H](F)C(=O)N[C@@H]1COc1nccc2cc(C(N)=O)c(OC)cc12 (10 µM) 0
Nc1cc(C(F)F)c(-c2nc(N3C4CCC3COC4)nc(N3C4CCC3COC4)n2)cn1 (2.5 µM) 0
Oc1ccccc1C(=S)N1CCCC1 (10 µM) 0
COc1ccc(-n2c(C)c([N+](=O)[O-])c3ccc(O)cc32)cc1 (10 µM) 0
CN(C)Cc1cccc(N=C(c2ccccc2)c2c(O)[nH]c3cc(C(N)=O)ccc23)c1 (10 µM) 0
CCCCNC(=N)NC(=N)N [Buformin (hydrochloride)] (2.5 µM) 0
O=c1ccoc2cc(O)ccc12 [7-Hydroxy-4H-chromen-4-one] (10 µM) 0
C=CC(=O)Nc1cccc(-n2c(=O)cc(C)c3cnc(Nc4ccc(OCCN(C)C)cc4OC)nc32)c1 (10 µM) 0
O=c1[nH]ccc2cc(OC3CCNCC3)ccc12 (10 µM) 0
CCCCOc1ccc(CC/C=C2\SC(=O)N(CCN)C2=O)cc1 [K145 (hydrochloride)] (2.5 µM) 0
CC(C)(O)[C@@H]1CC[C@](C)([C@H]2[C@@H](O)C[C@@]3(C)[C@@H]4C[C@H](O[C@@H]5O[C@H](CO)[C@@H](O)[C@H](O)[C@H]5O)[C@H]5C(C)(C)[C@@H](O[C@@H]6OC[C@@H](O)[C@H](O)[C@H]6O[C@@H]6O[C@H](CO)[C@@H](O)[C@H](O)[C@H]6O)CC[C@@]56C[C@@]46CC[C@]23C)O1 [Astragaloside VI] (10 µM) 0
O=C1NC(=O)C(c2cn(-c3ccccc3)nc2-c2ccc(F)cc2)N1 (stereo unspecified) (10 µM) 0
C[C@@H]1COCCN1c1cc(C2([S@](C)(=N)=O)CC2)nc(-c2cc[nH]c3nccc2-3)n1 [Ceralasertib] (2.5 µM) 0
CN(C)Cc1cccc(N=C(c2ccccc2)c2c(O)[nH]c3cc(C(=O)N(C)C)ccc23)c1 (10 µM) 0
CN1CCN(CCCNc2ncc(Cl)c(-c3cc4c(C(=O)NC5CC5)cccc4s3)n2)CC1 (10 µM) 0
CC[C@H](Nc1ncnc2[nH]cnc12)c1oc2ccccc2c(=O)c1-c1cccc(F)c1 [Tenalisib] (10 µM) 0
O=C1NC(=O)C(c2cnc3ccccn23)=C1c1cn2c3c(cc(F)cc13)CN(C(=O)N1CCCCC1)CC2 (2.5 µM) 0
COc1c(C)c(C(=O)c2ccc(N)c(C(=O)O)c2)n2ccccc12 (10 µM) 0
N#Cc1ccc(-c2c(-c3ncn[nH]3)sc(N3CCOCC3)c2C#N)c(F)c1 (10 µM) 0
N#C/C(=C(/N)Sc1ccc(N)cc1)c1ccccc1C(F)(F)F (10 µM) 0
O=C(Nc1ccc(Cl)cc1)C1CCCN(C(=O)c2cccc(-c3ccco3)c2)C1 (stereo unspecified) (2.5 µM) 0

No new results follow: 6 of the compounds above.
kinase-Nluc reporter destabilization hit call, inactive:
Nc1cc(C(F)F)c(-c2nc(N3C4CCC3COC4)nc(N3C4CCC3COC4)n2)cn1 (2.5 µM) 0
Oc1ccccc1C(=S)N1CCCC1 (10 µM) 0
COc1ccc(-n2c(C)c([N+](=O)[O-])c3ccc(O)cc32)cc1 (10 µM) 0
CN(C)Cc1cccc(N=C(c2ccccc2)c2c(O)[nH]c3cc(C(N)=O)ccc23)c1 (10 µM) 0
CCCCNC(=N)NC(=N)N [Buformin (hydrochloride)] (2.5 µM) 0
O=c1ccoc2cc(O)ccc12 [7-Hydroxy-4H-chromen-4-one] (10 µM) 0
